# This is one part of the list. Most entries show no effect beyond the scatter of the controls.
# Protein sequences, listed by entry. Tags and fused reporters are not part of them. Lines headed by an entry give the natural chain unless they say otherwise; changes in a name come on top.
# UniProt Q53F19: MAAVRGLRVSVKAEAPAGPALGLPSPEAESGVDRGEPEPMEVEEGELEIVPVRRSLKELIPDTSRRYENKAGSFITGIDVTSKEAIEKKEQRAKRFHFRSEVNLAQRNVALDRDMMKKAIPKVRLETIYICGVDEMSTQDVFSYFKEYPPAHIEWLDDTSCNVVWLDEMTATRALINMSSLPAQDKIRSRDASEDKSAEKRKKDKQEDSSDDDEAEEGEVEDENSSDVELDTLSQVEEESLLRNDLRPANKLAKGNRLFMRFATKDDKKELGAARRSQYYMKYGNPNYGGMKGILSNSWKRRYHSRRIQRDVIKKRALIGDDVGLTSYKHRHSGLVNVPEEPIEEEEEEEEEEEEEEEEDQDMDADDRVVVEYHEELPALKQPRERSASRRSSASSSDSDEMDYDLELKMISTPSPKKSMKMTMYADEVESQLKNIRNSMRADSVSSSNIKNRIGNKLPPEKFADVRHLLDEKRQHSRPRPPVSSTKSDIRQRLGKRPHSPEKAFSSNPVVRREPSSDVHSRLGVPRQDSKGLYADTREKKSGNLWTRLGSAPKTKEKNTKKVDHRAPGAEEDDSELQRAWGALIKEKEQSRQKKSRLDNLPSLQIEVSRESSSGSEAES
# UniProt Q5TYW1: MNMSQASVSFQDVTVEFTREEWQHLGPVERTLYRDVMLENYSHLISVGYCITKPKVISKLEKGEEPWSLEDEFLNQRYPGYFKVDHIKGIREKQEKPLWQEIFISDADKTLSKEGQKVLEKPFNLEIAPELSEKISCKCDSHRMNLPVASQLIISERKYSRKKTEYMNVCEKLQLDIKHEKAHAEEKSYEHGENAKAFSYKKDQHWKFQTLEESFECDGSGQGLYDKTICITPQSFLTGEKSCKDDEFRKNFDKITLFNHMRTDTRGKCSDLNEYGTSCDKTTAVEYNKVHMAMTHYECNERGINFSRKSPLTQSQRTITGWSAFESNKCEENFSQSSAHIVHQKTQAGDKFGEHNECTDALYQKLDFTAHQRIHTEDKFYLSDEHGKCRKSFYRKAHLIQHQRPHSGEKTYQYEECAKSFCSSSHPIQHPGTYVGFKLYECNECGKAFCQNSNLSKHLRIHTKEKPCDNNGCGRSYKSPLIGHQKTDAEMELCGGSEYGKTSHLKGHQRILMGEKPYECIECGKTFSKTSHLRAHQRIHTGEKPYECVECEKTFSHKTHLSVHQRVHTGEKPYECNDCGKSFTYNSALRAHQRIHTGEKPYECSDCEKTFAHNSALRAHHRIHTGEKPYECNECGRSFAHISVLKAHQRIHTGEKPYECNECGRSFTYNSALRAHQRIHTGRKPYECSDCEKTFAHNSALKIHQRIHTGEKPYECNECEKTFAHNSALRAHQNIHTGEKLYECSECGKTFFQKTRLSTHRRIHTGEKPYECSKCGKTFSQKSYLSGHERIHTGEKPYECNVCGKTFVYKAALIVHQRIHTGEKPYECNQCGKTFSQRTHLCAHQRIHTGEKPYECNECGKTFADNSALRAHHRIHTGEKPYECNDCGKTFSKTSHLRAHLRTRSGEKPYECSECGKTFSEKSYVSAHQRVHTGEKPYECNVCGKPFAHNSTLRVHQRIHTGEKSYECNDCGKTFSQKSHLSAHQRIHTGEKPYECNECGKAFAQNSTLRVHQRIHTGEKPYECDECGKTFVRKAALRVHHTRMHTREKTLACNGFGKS
# UniProt Q5VTL8: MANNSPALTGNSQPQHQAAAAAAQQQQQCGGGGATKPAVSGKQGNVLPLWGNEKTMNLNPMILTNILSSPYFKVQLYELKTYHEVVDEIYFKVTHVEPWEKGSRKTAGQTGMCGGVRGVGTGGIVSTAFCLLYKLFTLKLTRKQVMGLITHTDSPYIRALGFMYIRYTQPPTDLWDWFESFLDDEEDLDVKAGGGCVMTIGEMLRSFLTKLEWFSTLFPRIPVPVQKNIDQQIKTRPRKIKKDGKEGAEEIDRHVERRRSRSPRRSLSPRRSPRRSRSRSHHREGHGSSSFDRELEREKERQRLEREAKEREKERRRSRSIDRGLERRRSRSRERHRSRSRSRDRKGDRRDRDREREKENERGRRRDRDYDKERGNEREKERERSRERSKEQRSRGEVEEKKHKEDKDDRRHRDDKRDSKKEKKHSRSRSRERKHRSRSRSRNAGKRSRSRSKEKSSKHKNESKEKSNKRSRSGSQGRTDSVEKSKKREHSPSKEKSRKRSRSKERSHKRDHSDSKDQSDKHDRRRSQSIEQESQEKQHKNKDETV
# UniProt Q53SF7, whole entry: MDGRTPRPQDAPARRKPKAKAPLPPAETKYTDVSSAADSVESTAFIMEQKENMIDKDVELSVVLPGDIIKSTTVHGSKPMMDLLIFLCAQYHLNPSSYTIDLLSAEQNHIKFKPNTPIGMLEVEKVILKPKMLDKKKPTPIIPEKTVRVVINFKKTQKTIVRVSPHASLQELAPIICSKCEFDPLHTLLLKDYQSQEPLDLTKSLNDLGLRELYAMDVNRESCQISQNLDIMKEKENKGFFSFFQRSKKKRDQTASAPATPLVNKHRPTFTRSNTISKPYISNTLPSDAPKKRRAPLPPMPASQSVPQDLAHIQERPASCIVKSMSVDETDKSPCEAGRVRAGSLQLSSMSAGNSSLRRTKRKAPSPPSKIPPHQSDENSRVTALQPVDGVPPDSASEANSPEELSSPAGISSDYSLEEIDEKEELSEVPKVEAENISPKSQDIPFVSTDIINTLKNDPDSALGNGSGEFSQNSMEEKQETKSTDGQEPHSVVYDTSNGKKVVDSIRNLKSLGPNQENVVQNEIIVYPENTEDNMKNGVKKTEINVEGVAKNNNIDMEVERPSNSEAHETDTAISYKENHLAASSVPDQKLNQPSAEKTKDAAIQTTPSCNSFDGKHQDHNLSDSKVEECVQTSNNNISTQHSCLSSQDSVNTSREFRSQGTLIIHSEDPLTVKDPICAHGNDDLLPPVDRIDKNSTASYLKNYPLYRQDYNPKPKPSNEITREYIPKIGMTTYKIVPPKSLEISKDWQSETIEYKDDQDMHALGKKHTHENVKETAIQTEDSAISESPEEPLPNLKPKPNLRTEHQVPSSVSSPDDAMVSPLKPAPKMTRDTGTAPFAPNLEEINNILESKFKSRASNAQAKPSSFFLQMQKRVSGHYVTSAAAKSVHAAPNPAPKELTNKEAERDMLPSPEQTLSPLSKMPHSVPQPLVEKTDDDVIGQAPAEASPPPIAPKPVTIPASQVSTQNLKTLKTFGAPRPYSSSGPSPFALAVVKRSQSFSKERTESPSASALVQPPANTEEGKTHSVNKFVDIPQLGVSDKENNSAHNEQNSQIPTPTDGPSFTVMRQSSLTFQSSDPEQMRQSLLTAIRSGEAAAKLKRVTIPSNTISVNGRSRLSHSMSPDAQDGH
# UniProt Q5VTD9: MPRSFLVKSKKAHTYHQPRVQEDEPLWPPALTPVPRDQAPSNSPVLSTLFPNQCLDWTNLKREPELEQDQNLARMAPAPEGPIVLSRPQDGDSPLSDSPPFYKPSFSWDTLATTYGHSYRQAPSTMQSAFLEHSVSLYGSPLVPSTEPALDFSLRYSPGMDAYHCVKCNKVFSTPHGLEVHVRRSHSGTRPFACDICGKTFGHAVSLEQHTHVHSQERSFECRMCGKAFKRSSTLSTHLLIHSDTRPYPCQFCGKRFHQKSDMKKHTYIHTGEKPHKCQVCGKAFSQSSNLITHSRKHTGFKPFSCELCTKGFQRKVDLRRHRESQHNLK
# UniProt Q5VWQ0: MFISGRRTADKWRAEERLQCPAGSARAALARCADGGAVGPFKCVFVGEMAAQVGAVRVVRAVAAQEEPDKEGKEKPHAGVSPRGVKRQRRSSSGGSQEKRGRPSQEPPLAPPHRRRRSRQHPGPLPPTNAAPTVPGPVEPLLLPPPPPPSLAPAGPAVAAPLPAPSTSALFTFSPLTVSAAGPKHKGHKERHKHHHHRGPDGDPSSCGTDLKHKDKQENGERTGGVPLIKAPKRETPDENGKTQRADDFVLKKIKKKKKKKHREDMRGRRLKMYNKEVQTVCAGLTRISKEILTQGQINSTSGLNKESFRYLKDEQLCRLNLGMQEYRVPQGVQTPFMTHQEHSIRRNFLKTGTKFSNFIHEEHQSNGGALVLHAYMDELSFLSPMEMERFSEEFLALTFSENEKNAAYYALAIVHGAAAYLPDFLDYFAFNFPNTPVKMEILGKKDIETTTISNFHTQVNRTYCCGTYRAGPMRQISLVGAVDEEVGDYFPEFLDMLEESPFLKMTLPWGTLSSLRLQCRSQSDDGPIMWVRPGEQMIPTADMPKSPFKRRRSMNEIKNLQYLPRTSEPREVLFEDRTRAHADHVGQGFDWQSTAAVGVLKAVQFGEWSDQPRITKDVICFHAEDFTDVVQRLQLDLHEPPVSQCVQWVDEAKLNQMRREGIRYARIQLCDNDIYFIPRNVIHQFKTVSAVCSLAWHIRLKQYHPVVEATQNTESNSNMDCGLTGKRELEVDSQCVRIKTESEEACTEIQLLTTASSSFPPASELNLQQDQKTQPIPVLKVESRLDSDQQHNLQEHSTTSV
# UniProt Q5VUM1: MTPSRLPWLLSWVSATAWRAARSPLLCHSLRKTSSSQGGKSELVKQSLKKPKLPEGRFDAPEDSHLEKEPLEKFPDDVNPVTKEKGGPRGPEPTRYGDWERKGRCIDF
# UniProt Q5T0U0: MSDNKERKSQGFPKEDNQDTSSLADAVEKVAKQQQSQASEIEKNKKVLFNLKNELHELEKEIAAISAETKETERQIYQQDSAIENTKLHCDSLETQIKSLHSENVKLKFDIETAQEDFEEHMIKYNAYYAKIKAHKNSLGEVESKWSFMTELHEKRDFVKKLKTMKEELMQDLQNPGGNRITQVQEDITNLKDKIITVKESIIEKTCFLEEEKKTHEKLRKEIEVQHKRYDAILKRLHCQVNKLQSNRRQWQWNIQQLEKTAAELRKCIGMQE
# Compound: CN[C@@H]1C[C@H]2O[C@@](C)([C@@H]1OC)n1c3ccccc3c3c4c(c5c6ccccc6n2c5c31)C(=O)NC4 [staurosporine]
# Assay: log2 fold change of tryptic peptide abundance, ligand vs vehicle (limited proteolysis) (log2 ratio); higher = more trypsin-susceptible (destabilized)
# Conditions: ligand concentration: 20 uM; sample: K562 cleared lysate; digestion: 4 min, 22 C (HT-PELSA RT4min, Orbitrap Astral)
row,Target,log2 fold change
1,"UniProt Q53F19 (peptide sequence: NVALDRDMMK, peptide start residue: 108)",0.339
2,"UniProt Q5TYW1 (peptide sequence: IHTGEKPYECNECGR, peptide start residue: 383)",0.0762
3,"PRPF38B (peptide sequence: EGAEEIDR, peptide start residue: 246) (UniProt Q5VTL8)",-0.116
4,"COBLL1 (peptide sequence: SVHAAPNPAPK, peptide start residue: 887) (UniProt Q53SF7)",0.503
5,"GFI1B (peptide sequence: VQEDEPLWPPALTPVPR, peptide start residue: 20) (UniProt Q5VTD9)",-0.11
6,"UniProt Q5VWQ0 (peptide sequence: RETPDENGK, peptide start residue: 234)",-0.518
7,"SDHAF4 (peptide sequence: FDAPEDSHLEK, peptide start residue: 58) (UniProt Q5VUM1)",0.213
8,"UniProt Q5T0U0 (peptide sequence: SLHSENVK, peptide start residue: 99)",0.0891
